# Laboratory results reported in PubChem BioAssay AID1487 (National Center for Advancing Translational Sciences (NCATS), 2009).
# The list shows a part of the results. Further columns of the screen follow, without active or inactive calls. Most of these compounds were active or inconclusive in the main read-out, so they are no random draw. Words in brackets tell the shape of the fitted curve; partial curves, single points and poor fits give uncertain potencies.
# Assay: qHTS Assay for Modulators of Lamin A Splicing
# Settings: HeLa LMNA splicing GFP/RFP minigene ratio, 48 h
# How it was run: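 Read-out is the ratio of GFP to DsRed2 object intensity, acquired by 488 nm laser-scanning cytometry on HeLa lamin A-EGFP minigene reporter cells. Compound incubation 48 hrs at 37 °C in Opti-MEM with 2% FBS; DMSO 0.5% final.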
# [1] = measured here: RFP viability control channel
# [2] = measured here: GFP splicing reporter channel
Compound,AC50 [1],AC50 [2]
Cc1cccc(-c2cc(C(=O)NCCCn3ccnc3)c3ccccc3n2)c1,"12.6 µM [rising, single point]",–
Cc1ccc(/C=N/NS(=O)(=O)c2ccccc2)o1,"3.98 µM [falling, full curve]",–
CC(=O)c1c(C)[nH]c(C(=O)OCC(=O)Nc2cccc(S(=O)(=O)N3CCCC3)c2)c1C,"3.55 µM [rising, full curve]",–
CCOC(=O)C(=CNc1cc(C)nn1-c1ccccc1)C(=O)OCC,"17.8 µM [rising, single point]","17.8 µM [rising, partial curve]"
O=C(C1=C(O)C(=O)N(CCOCCO)C1c1cccs1)c1cccs1 (stereo not drawn),"2 µM [falling, full curve, poor fit]",–
COc1ccccc1N(C)S(=O)(=O)c1ccc(C(=O)OCC(N)=O)cc1,–,"0.794 µM [falling, single point]"
Cc1cc(NC(=O)c2cc(-c3cccs3)on2)nn1Cc1ccc(Cl)cc1,"3.55 µM [rising, single point]","2.82 µM [rising, full curve, poor fit]"
Cc1ccc(C2=NN(S(C)(=O)=O)C(c3ccc4c(c3)OCO4)C2)cc1 (stereo not drawn),"14.1 µM [rising, single point]",–
Cc1cccc(-n2ncc3c(NC4CCCCC4)ncnc32)c1,"11.2 µM [rising, partial curve]","0.126 µM [rising, partial curve]"
C[C@H](N=C(NC#N)Nc1ccncc1)C(C)(C)C,–,"0.0794 µM [falling, full curve, poor fit]"
CCCn1c(=O)c(C(=O)NCc2ccc(OC)c(OC)c2)c(O)c2ccccc21,–,"6.31 µM [rising, partial curve]"
O=S1(=O)c2ccccc2N(Cc2cccc(Cl)c2)c2ccccc21,"0.00794 µM [falling, full curve, poor fit]",–
CCOc1ccc(/C=N/NC2=NCCCCC2)cc1,"0.001 µM [falling, full curve, poor fit]","0.0224 µM [falling, full curve, poor fit]"
CC(C)CCNC(=O)CN1C(=O)CSc2ccc(S(=O)(=O)N3CCCCC3)cc21,"35.5 µM [falling, single point]","20 µM [falling, partial curve, poor fit]"
CCOc1ccc(CCNC(=O)c2ccc(N3CCCC3=O)cc2)cc1OCC,"14.1 µM [rising, single point]",–
Cc1cccc(NC(=O)N2CCCC2C(=O)Nc2ccccc2)c1 (stereo not drawn),–,"0.0224 µM [rising, full curve, poor fit]"
C/C(=C\C(=O)c1ccc(Br)cc1)N1CCCCC1,"35.5 µM [rising, single point]",–
CCCn1c2ccccc2c2cnn(CC(=O)N(CCCOC)Cc3ccco3)c(=O)c21,–,"0.0224 µM [falling, full curve, poor fit]"
O=C1CC(c2ccc(O)cc2)Oc2ccccc21 (stereo not drawn),–,"20 µM [falling, partial curve, poor fit]"

Compound,AC50 [1],AC50 [2]
CSc1nsc2nc(=O)c(/C=C3\C=Nc4ccccc43)c(N)n12,"5.62 µM [falling, single point]",–
Cc1cc(/C=C2/SC(=O)N(CC(=O)OC(C)C)C2=O)c(C)n1C,"31.6 µM [rising, single point]","15.8 µM [rising, single point]"
CCOc1ccc(C(=O)Nc2ccc(NC(=O)c3ccco3)c(Cl)c2)cc1Br,"11.2 µM [falling, partial curve]",–
O=C(CCCN1C(=O)c2cccc3cccc(c23)C1=O)N1CCN(c2ccccn2)CC1,–,"11.2 µM [rising, partial curve]"
CC(CO)NCC12CC3CC(CC(C3)C1)C2 (stereo not drawn),–,"22.4 µM [rising, partial curve, poor fit]"
Fc1ccc(Nc2nc3ccccc3s2)cc1,–,"0.794 µM [falling, full curve, poor fit]"
CC1(C)CC(=O)C(C(C2=C(O)CC(C)(C)CC2=O)c2ccc(Br)s2)C(=O)C1 (stereo not drawn),–,"35.5 µM [falling, single point]"
CCOC(=O)Nc1ccc2c(c1)Nc1ccccc1S2,"15.8 µM [rising, single point]",–
FC(F)(F)c1cccc(NC(=S)N2CCN(c3cccc(C(F)(F)F)c3)CC2)c1,"15.8 µM [rising, partial curve]","17.8 µM [rising, partial curve, poor fit]"
COc1ccc2[nH]c(=O)c(CN(Cc3cccs3)S(=O)(=O)c3cccc4nsnc34)cc2c1,"3.16 µM [rising, full curve, poor fit]",–
Cc1cc(=O)[nH]c(SCC(=O)Nc2cccc3ccccc23)c1C#N,"35.5 µM [rising, single point]","35.5 µM [rising, single point]"
O=C(CSc1nc2ccc(Cl)cc2[nH]1)Nc1ccc2c(c1)CCC2,–,"0.398 µM [falling, full curve, poor fit]"
COc1ccc(C(=O)N2CCCC(c3nc(-c4ccc(OC)c(OC)c4)no3)C2)c(OC)c1 (stereo not drawn),"14.1 µM [rising, partial curve]","11.2 µM [rising, partial curve]"
Nc1c(C(=O)NCc2ccco2)c2nc3ccccc3nc2n1CCc1ccc(F)cc1,–,"14.1 µM [falling, single point]"
CC12COC3(C(=O)Nc4ccc(Cl)cc4)CC1CCC32C (stereo not drawn),"14.1 µM [rising, single point]","1.26 µM [rising, partial curve]"
Cc1cccc(N=C2NC(=O)/C(=C/C=C/c3ccco3)S2)c1,"15.8 µM [rising, single point]",–
CNC(=O)/C(C#N)=C/c1c(N(Cc2ccccc2)Cc2ccccc2)nc2c(C)cccn2c1=O,"35.5 µM [rising, partial curve]","35.5 µM [rising, single point]"
COc1ccc(CNc2ncnc3onc(-c4ccc(F)cc4)c23)cc1,–,"0.316 µM [rising, full curve, poor fit]"

# Compounds listed so far that contain bromine:
Compound,AC50 [1],AC50 [2]
C/C(=C\C(=O)c1ccc(Br)cc1)N1CCCCC1,"35.5 µM [rising, single point]",–
CCOc1ccc(C(=O)Nc2ccc(NC(=O)c3ccco3)c(Cl)c2)cc1Br,"11.2 µM [falling, partial curve]",–
CC1(C)CC(=O)C(C(C2=C(O)CC(C)(C)CC2=O)c2ccc(Br)s2)C(=O)C1 (stereo not drawn),–,"35.5 µM [falling, single point]"
